This note sets out measurements from ChEMBL document CHEMBL5724796, “Tm Shift (DSF) assay results for EUbOPEN Chemogenomics Library” (2024).

By UniProt entry, the sequences of proteins in these tests, tags left out.
UniProt P21802, whole entry, looked up: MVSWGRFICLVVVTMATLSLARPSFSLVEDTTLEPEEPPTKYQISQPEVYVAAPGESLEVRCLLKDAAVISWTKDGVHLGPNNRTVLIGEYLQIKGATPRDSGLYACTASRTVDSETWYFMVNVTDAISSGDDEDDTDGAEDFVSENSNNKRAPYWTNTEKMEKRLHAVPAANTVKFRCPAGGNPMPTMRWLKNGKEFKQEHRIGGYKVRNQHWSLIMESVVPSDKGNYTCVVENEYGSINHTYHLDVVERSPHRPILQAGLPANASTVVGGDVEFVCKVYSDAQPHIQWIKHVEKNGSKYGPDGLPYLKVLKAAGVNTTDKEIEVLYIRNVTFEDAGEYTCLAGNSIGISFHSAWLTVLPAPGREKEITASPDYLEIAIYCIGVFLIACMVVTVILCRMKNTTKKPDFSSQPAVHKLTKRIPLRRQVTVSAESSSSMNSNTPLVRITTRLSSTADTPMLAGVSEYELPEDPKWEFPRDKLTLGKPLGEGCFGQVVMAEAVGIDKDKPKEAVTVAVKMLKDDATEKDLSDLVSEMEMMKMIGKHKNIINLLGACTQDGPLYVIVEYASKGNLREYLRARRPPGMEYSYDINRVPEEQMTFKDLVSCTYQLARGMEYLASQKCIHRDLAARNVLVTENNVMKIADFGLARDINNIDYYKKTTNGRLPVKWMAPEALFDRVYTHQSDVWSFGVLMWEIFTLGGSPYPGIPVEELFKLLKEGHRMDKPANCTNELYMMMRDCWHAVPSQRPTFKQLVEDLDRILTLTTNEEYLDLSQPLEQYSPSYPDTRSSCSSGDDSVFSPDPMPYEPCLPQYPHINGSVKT

What is called ΔTm is the change in melting temperature against a reference sample.

One assay deals with T1, Peregrin (Homo sapiens) (UniProt P55201).
T1 sequence (whole entry): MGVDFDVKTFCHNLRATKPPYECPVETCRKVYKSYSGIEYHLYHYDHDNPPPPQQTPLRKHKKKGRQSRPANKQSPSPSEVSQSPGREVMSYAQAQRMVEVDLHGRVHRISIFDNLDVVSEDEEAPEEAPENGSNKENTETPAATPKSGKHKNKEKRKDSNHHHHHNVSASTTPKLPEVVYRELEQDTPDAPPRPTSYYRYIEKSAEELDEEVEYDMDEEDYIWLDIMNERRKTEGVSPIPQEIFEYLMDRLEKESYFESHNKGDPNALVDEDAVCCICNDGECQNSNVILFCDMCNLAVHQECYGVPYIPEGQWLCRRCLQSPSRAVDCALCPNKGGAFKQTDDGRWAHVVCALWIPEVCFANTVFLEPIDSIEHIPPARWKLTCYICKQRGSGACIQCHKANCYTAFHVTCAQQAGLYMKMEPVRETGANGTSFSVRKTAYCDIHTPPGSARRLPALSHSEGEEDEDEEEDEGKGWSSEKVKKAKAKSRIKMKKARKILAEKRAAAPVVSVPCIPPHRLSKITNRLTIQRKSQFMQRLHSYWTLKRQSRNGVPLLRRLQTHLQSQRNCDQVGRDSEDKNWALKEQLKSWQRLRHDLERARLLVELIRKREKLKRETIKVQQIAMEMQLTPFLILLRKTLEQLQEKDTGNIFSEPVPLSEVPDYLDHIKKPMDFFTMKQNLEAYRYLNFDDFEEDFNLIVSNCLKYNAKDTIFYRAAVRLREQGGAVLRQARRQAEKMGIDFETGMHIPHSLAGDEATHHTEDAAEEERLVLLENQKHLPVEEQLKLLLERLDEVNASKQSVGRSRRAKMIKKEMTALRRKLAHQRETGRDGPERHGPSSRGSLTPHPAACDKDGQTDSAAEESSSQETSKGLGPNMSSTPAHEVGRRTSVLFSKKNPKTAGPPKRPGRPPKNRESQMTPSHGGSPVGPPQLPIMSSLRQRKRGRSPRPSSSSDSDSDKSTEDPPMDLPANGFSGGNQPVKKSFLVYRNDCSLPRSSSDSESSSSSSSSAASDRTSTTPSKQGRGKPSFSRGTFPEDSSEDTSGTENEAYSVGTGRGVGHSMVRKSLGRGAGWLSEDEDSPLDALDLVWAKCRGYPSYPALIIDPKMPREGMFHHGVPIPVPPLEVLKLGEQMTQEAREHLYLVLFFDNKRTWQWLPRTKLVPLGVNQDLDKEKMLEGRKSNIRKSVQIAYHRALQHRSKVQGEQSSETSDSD
The conditions noted are these: Compound concentration 20.0 uM.

Assay [1] addresses Fibroblast growth factor receptor 2 (Homo sapiens) (UniProt P21802). The following applies: Compound concentration 20.0 uM.

Structures are written as SMILES. Values joined by “and” are separate entries in the source; they are usually repeats but may differ in a detail not shown here. Equal entries are not always repeated.

As to `COC[C@@H](NC(=O)N1CC(=O)Nc2cc(OC)cnc21)c1ccc(OC(F)(F)F)c(F)c1`, the ΔTm was -0.5 °C at Peregrin (Homo sapiens) and 0.05 °C in assay [1].

Turning to `CNC(=O)c1ccc(-c2cc3cccc(-c4nn(C5CCOCC5)c5c4CN(C(C)=O)CC5)c3cn2)cn1`, the ΔTm on Peregrin (Homo sapiens) was -0.33 °C; in assay [1], 0.4 °C.

As for `Cc1ccc(C(=O)NCCCCCC(=O)Nc2ccccc2N)cc1`, the ΔTm is -1.08 °C and -1.24 °C at Peregrin (Homo sapiens); 0.03 °C and 0.55 °C in assay [1].
